Measured values: US20200317791A1
These are yes or no findings as the source states them, for the method shown. For some of these results: A result given as binding can be weak or reduced; the word gives no strength.

Assays:
[1] = biological target: B13,Bw4_B*13:01 (human); assay: LABScreen beads
[2] = biological target: B13,Bw4_B*13:02 (human); assay: LABScreen beads
[3] = biological target: B18,Bw6_B*18:01 (human); assay: LABScreen beads
[4] = biological target: B27,Bw4_B*27:05 (human), B*27:0; assay: LABScreen beads
[5] = biological target: B27,Bw6_B*27:08 (human); assay: LABScreen beads
[6] = biological target: B35,Bw6_B*35:01 (human); assay: LABScreen beads
[7] = biological target: B37,Bw4_B*37:01 (human); assay: LABScreen beads
[8] = biological target: B38,Bw4_B*38:01 (human); assay: LABScreen beads
[9] = biological target: B39,Bw6_B*39:01 (human); assay: LABScreen beads
[10] = biological target: B41,Bw6_B*41:01 (human); assay: LABScreen beads
[11] = biological target: B42,Bw6_B*42:01 (human); assay: LABScreen beads
[12] = biological target: B44,Bw4_B*44:02 (human); assay: LABScreen beads
[13] = biological target: B44,Bw4_B*44:03 (human); assay: LABScreen beads
[14] = biological target: B45,Bw6_B*45:01 (human); assay: LABScreen beads
[15] = biological target: B47,Bw4_B*47:01 (human); assay: LABScreen beads
[16] = biological target: B48,Bw6_B*48:01 (human); assay: LABScreen beads
[17] = biological target: B49,Bw4_B*49:01 (human); assay: LABScreen beads
[18] = biological target: B50,Bw6_B*50:01 (human); assay: LABScreen beads
[19] = biological target: B51,Bw4_B*51:01 (human); assay: LABScreen beads
[20] = biological target: B51,Bw4_B*51:02 (human); assay: LABScreen beads
[21] = biological target: B52,Bw4_B*52:01 (human); assay: LABScreen beads
[22] = biological target: B53,Bw4_B*53:01 (human); assay: LABScreen beads
[23] = biological target: B54,Bw6_B*54:01 (human); assay: LABScreen beads
[24] = biological target: B55,Bw6_B*55:01 (human); assay: LABScreen beads
[25] = biological target: B56,Bw6_B*56:01 (human); assay: LABScreen beads
[26] = biological target: B57,Bw4_B*57:01 (human); assay: LABScreen beads
[27] = biological target: B57,Bw4_B*57:03 (human); assay: LABScreen beads
[28] = biological target: B58,Bw4_B*58:01 (human); assay: LABScreen beads
[29] = biological target: B59,Bw4_B*59:01 (human); assay: LABScreen beads
[30] = biological target: B60,Bw6_B*40:01 (human); assay: LABScreen beads
[31] = biological target: B61,Bw6_B*40:02 (human); assay: LABScreen beads
[32] = biological target: B61,Bw6_B*40:06 (human); assay: LABScreen beads
[33] = biological target: B62,Bw6_B*15:01 (human); assay: LABScreen beads
[34] = biological target: B63,Bw4_B*15:16 (human); assay: LABScreen beads
[35] = biological target: B64,Bw6_B*14:01 (human); assay: LABScreen beads
[36] = biological target: B65,Bw6_B*14:02 (human); assay: LABScreen beads
[37] = biological target: B67,Bw6_B*67:01 (human); assay: LABScreen beads
[38] = biological target: B7,Bw6_B*07:02 (human), B*07:0; assay: LABScreen beads
[39] = biological target: B71,Bw6_B*15:10 (human); assay: LABScreen beads
[40] = biological target: B72,Bw6_B*15:03 (human); assay: LABScreen beads
[41] = biological target: B75,Bw6_B*15:02 (human); assay: LABScreen beads
[42] = biological target: B75,Bw6_B*15:11 (human); assay: LABScreen beads
[43] = biological target: B76,Bw6_B*15:12 (human); assay: LABScreen beads
[44] = biological target: B77,Bw4_B*15:13 (human); assay: LABScreen beads
[45] = biological target: B78,Bw6_B*78:01 (human); assay: LABScreen beads
[46] = biological target: B8,Bw6_B*08:01 (human); assay: LABScreen beads
[47] = biological target: B81,Bw6_B*81:01 (human); assay: LABScreen beads
[48] = biological target: B82,Bw6_B*82:01 (human); assay: LABScreen beads
[49] = biological target: Cw10_C*03:02 (human); assay: LABScreen beads, 10 µg/ml antibody
[50] = biological target: Cw10_C*03:04 (human); assay: LABScreen beads, 10 µg/ml antibody
[51] = biological target: Cw12_C*12:03 (human); assay: LABScreen beads, 10 µg/ml antibody
[52] = biological target: Cw14_C*14:02 (human); assay: LABScreen beads, 10 µg/ml antibody
[53] = biological target: Cw15_C*15:02 (human); assay: LABScreen beads, 10 µg/ml antibody
[54] = biological target: Cw16_C*16:01 (human); assay: LABScreen beads, 10 µg/ml antibody
[55] = biological target: Cw17_C*17:01 (human); assay: LABScreen beads, 10 µg/ml antibody
[56] = biological target: Cw18_C*18:02 (human); assay: LABScreen beads, 10 µg/ml antibody
[57] = biological target: Cw1_C*01:02 (human); assay: LABScreen beads, 10 µg/ml antibody
[58] = biological target: Cw2_C*02:02 (human); assay: LABScreen beads, 10 µg/ml antibody
[59] = biological target: Cw4_C*04:01 (human); assay: LABScreen beads, 10 µg/ml antibody
[60] = biological target: Cw5_C*05:01 (human); assay: LABScreen beads, 10 µg/ml antibody
[61] = biological target: Cw6_C*06:02 (human), C*06:0; assay: LABScreen beads, 10 µg/ml antibody
[62] = biological target: Cw7_C*07:02 (human), C*07:0; assay: LABScreen beads, 10 µg/ml antibody
[63] = biological target: Cw8_C*08:01 (human); assay: LABScreen beads, 10 µg/ml antibody
[64] = biological target: Cw9_C*03:03 (human); assay: LABScreen beads, 10 µg/ml antibody

binding [1]: no binding (tested: 10 µg/ml)
binding [2]: no binding (tested: 10 µg/ml)
binding [3]: no binding (tested: 10 µg/ml)
binding [4]: no binding (tested: 10 µg/ml)
binding [5]: no binding (tested: 10 µg/ml)
binding [6]: no binding (tested: 10 µg/ml)
binding [7]: no binding (tested: 10 µg/ml)
binding [8]: no binding (tested: 10 µg/ml)
binding [9]: no binding (tested: 10 µg/ml)
binding [10]: no binding (tested: 10 µg/ml)
binding [11]: no binding (tested: 10 µg/ml)
binding [12]: no binding (tested: 10 µg/ml)
binding [13]: no binding (tested: 10 µg/ml)
binding [14]: no binding (tested: 10 µg/ml)
binding [15]: no binding (tested: 10 µg/ml)
binding [16]: no binding (tested: 10 µg/ml)
binding [17]: no binding (tested: 10 µg/ml)
binding [18]: no binding (tested: 10 µg/ml)
binding [19]: no binding (tested: 10 µg/ml)
binding [20]: no binding (tested: 10 µg/ml)
binding [21]: no binding (tested: 10 µg/ml)
binding [22]: no binding (tested: 10 µg/ml)
binding [23]: no binding (tested: 10 µg/ml)
binding [24]: no binding (tested: 10 µg/ml)
binding [25]: no binding (tested: 10 µg/ml)
binding [26]: no binding (tested: 10 µg/ml)
binding [27]: no binding (tested: 10 µg/ml)
binding [28]: no binding (tested: 10 µg/ml)
binding [29]: no binding (tested: 10 µg/ml)
binding [30]: no binding (tested: 10 µg/ml)
binding [31]: no binding (tested: 10 µg/ml)
binding [32]: no binding (tested: 10 µg/ml)
binding [33]: no binding (tested: 10 µg/ml)
binding [34]: no binding (tested: 10 µg/ml)
binding [35]: no binding (tested: 10 µg/ml)
binding [36]: no binding (tested: 10 µg/ml)
binding [37]: no binding (tested: 10 µg/ml)
binding [38]: no binding (tested: 10 µg/ml)
binding [39]: no binding (tested: 10 µg/ml)
binding [40]: no binding (tested: 10 µg/ml)
binding [41]: no binding (tested: 10 µg/ml)
binding [42]: no binding (tested: 10 µg/ml)
binding [43]: no binding (tested: 10 µg/ml)
binding [44]: no binding (tested: 10 µg/ml)
binding [45]: no binding (tested: 10 µg/ml)
binding [46]: no binding (tested: 10 µg/ml)
binding [47]: no binding (tested: 10 µg/ml)
binding [48]: no binding (tested: 10 µg/ml)
binding [49]: binds
binding [50]: binds
binding [51]: binds
binding [52]: binds
binding [53]: binds
binding [54]: binds
binding [55]: binds
binding [56]: binds
binding [57]: binds
binding [58]: binds
binding [59]: binds
binding [60]: binds
binding [61]: binds
binding [62]: binds
binding [63]: binds
binding [64]: binds
B1: CW6B130 (antibody, V domains shown)
VH: QLQLQESGPGLVKPSETLSLTCTVSGASISSINYYWGWIRQPPGKGLEWIGSFYYSGNTYYNPSLKSRVTISVDTSKNYFSLKLNSVTAADTAVYYCAREYYDSSGYYPFEPWGQGTLVTVSS
VL: SYVLTQPPSVSVAPGQTARITCGGDNIGSESVHWYQQKPGQAPVLVVYDDTDRPSGIPERFSGSKSGTTATLTISWVEAGDEADYYCQVWDSSSDHVVFGGGTKLTVL
